Data: publication PMC13436963
These are yes or no findings as the source states them, for the method shown. In cells and extracts the contact can be indirect. Some entries that bind do so weakly or less than the wild type. Sequences can lack the tags named with a protein.

Key:
[1] = target: EGFP-tagged full-length Drosophila Notch (Drosophila melanogaster) (UniProt P07207); assay: co-IP; luciferase-coupled co-immunoprecipitation: Notch–EGFP precipitated with GFP-Trap beads (1 hr, 4 °C) from lysate of S2 cells co-expressing LNR–Luciferase; co-precipitated luciferase activity normalised to lysate luciferase; lysis buffer 100 mM Tris-HCl pH 7.5, 150 mM NaCl, 1% Tergitol 15 S-9, 1 mM CaCl2
[2] = target: Drosophila Notch LNR domain F1563A fused to split firefly luciferase fragments (Drosophila melanogaster) (UniProt P07207); assay: split reporter; split firefly luciferase complementation: 50 ng each of LNR–NLuc and LNR–CLuc co-transfected into S2 cells; firefly signal normalised to Renilla luciferase
[3] = target: Drosophila Notch LNR domain fused to split firefly luciferase fragments (LNR–NLuc and LNR–CLuc) (Drosophila melanogaster) (UniProt P07207); assay: as above
[4] = target: Drosophila Notch LNR domain H1570A fused to split firefly luciferase fragments (Drosophila melanogaster) (UniProt P07207); assay: as above

binding [1] | Binder | other results
binds | luciferase-tagged Drosophila Notch LNR domain (residues G1465 to V1600) (domain or fragment, UniProt P07207 1465-1600) GSGNDRYAADLEQQRAMCDKRGCTEKQGNGICDSDCNTYACNFDGNDCSLGINPWANCTANECWNKFKNGKCNEECNNAACHYDGHDCERKLKSCDSLFDAYCQKHYGDGFCDYGCNNAECSWDGLDCENKTQSPV | –
– | Drosophila Notch LNR domain F1563A fused to split firefly luciferase fragments (domain or fragment, UniProt P07207 1465-1600) GSGNDRYAADLEQQRAMCDKRGCTEKQGNGICDSDCNTYACNFDGNDCSLGINPWANCTANECWNKFKNGKCNEECNNAACHYDGHDCERKLKSCDSLADAYCQKHYGDGFCDYGCNNAECSWDGLDCENKTQSPV | binding [2]: binds
binds | luciferase-tagged Drosophila Notch LNR domain (G1465 to V1600) H1570A (domain or fragment, UniProt P07207 1465-1600) GSGNDRYAADLEQQRAMCDKRGCTEKQGNGICDSDCNTYACNFDGNDCSLGINPWANCTANECWNKFKNGKCNEECNNAACHYDGHDCERKLKSCDSLFDAYCQKAYGDGFCDYGCNNAECSWDGLDCENKTQSPV | –
– | Drosophila Notch LNR domain fused to split firefly luciferase fragments (LNR–NLuc and LNR–CLuc) (domain or fragment, UniProt P07207 1465-1600) GSGNDRYAADLEQQRAMCDKRGCTEKQGNGICDSDCNTYACNFDGNDCSLGINPWANCTANECWNKFKNGKCNEECNNAACHYDGHDCERKLKSCDSLFDAYCQKHYGDGFCDYGCNNAECSWDGLDCENKTQSPV | binding [3]: binds
binds | luciferase-tagged Drosophila Notch LNR domain (G1465 to V1600) F1563A (domain or fragment, UniProt P07207 1465-1600) GSGNDRYAADLEQQRAMCDKRGCTEKQGNGICDSDCNTYACNFDGNDCSLGINPWANCTANECWNKFKNGKCNEECNNAACHYDGHDCERKLKSCDSLADAYCQKHYGDGFCDYGCNNAECSWDGLDCENKTQSPV | –
– | Drosophila Notch LNR domain H1570A fused to split firefly luciferase fragments (domain or fragment, UniProt P07207 1465-1600) GSGNDRYAADLEQQRAMCDKRGCTEKQGNGICDSDCNTYACNFDGNDCSLGINPWANCTANECWNKFKNGKCNEECNNAACHYDGHDCERKLKSCDSLFDAYCQKAYGDGFCDYGCNNAECSWDGLDCENKTQSPV | binding [4]: binds
